Measured values as given in paper PMC5923425, “Structural analysis of human ARS2 as a platform for co-transcriptional RNA sorting” (Nature Communications, 2018).
Positions count from the first letter of the chain named. Names and notes keep the numbering of the source. These are yes or no findings as the source states them, for the method shown.

The chains behind the UniProt entries cited, without tags or fusion partners. Residues count along the entry.
UniProt Q9UKL3, residues 903-943: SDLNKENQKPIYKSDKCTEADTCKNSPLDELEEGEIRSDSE

Key:
[1] = biological target: T1, scrambled FARB peptide; assay: ITC; MicroCal ITC200, 25 °C, ARS2 constructs with FLASH peptides; high salt (HS): buffer containing 250 mM NaCl; single-site fit; which partner was injected is not told; both purified
T1 sequence (peptide): EGEIESELSEDDR

[2] = biological target: T2, NCBP3^1–282 (human) (UniProt Q53F19); assay: pull-down; purified recombinant NCBP3 constructs immobilised on m7GTP sepharose, incubated with CBP80 and/or wild type or mutant ARS2; eluted fractions on Coomassie-stained SDS-PAGE; both purified
T2 sequence: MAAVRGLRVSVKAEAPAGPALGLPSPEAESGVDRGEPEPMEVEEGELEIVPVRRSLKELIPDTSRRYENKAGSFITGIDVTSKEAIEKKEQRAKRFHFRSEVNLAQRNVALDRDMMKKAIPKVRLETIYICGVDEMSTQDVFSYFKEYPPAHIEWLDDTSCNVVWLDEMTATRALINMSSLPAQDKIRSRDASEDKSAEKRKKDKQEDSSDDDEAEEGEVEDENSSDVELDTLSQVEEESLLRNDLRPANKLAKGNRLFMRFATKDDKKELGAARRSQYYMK

[3] = biological target: T3, FARB (FLASH–ARS2-binding region) peptide of FLASH, residues 931–943; assay: ITC; MicroCal ITC200, 25 °C, ARS2 constructs with FLASH peptides; high salt (HS): buffer containing 250 mM NaCl; single-site fit; which partner was injected is not told; both purified
T3 sequence (peptide): DELEEGEIRSDSE

[4] = biological target: GST–FLASH^903–943 (UniProt Q9UKL3); assay: pull-down; GST–FLASH 903–943 (or GST as control) immobilised on glutathione sepharose, incubated with purified ARS2 constructs 30 min at 10 °C; flow-through, wash and elution on Coomassie-stained SDS-PAGE; both purified
[5] = biological target: T2, NCBP3^1–282 (human); assay: ITC; MicroCal ITC200, 25 °C, ARS2 constructs with NCBP3 1–282; buffer containing 250 mM NaCl; injections of 2.5 µL; both purified

B1: ARS2^147–871 (domain or fragment, UniProt Q9BXP5-4 147-871)
chain: PVMKTFKEFLLSLDDSVDETEAVKRYNDYKLDFRRQQMQDFFLAHKDEEWFRSKYHPDEVGKRRQEARGALQNRLRVFLSLMETGWFDNLLLDIDKADAIVKMLDAAVIKMEGGTENDLRILEQEEEEEQAGKPGEPSKKEEGRAGAGLGDGERKTNDKDEKKEDGKQAENDSSNDDKTKKSEGDGDKEEKKEDSEKEAKKSSKKRNRKHSGDDSFDEGSVSESESESESGQAEEEKEEAEALKEKEKPKEEEWEKPKDAAGLECKPRPLHKTCSLFMRNIAPNISRAEIISLCKRYPGFMRVALSEPQPERRFFRRGWVTFDRSVNIKEICWNLQNIRLRECELSPGVNRDLTRRVRNINGITQHKQIVRNDIKLAAKLIHTLDDRTQLWASEPGTPPLPTSLPSQNPILKNITDYLIEEVSAEEEELLGSSGGAPPEEPPKEGNPAEINVERDEKLIKVLDKLLLYLRIVHSLDYYNTCEYPNEDEMPNRCGIIHVRGPMPPNRISHGEVLEWQKTFEEKLTPLLSVRESLSEEEAQKMGRKDPEQEVEKFVTSNTQELGKDKWLCPLSGKKFKGPEFVRKHIFNKHAEKIEEVKKEVAFFNNFLTDAKRPALPEIKPAQPPGPAQSLTPGLPYPHQTPQGLMPYGQPRPPILGYGAGAVRPAVPTGGPPYPHAPYGAGRGNYDAFRGQGGYPGKPRNRMVRGDPRAIVEYRDLDAPDDVDFF
- binding [1]: no binding

B2: ARS2^(147–871 K719A K722A K734A) (domain or fragment, UniProt Q9BXP5-4 147-871)
chain: B1 chain with K573A, K576A, K588A
- binding [2]: no binding
- binding [3]: no binding
- binding [4]: no binding
- binding [5]: no binding
